# Source: PubChem BioAssay AID2685 (National Center for Advancing Translational Sciences (NCATS), 2010)
# The other results are listed elsewhere or left out. Shown are side measurements of this screen, not its main read-out; they come without a call. Compounds called inactive in the main read-out are mostly missing here. The note in brackets gives the kind of curve behind each potency; many fits are weak.
# Experiment: qHTS Assay for Lipid Storage Modulators in Drosophila S3 Cells;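 on cell number change: cells counted by Cell Tracker Red CMTPX staining in the red channel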
# Conditions: BODIPY lipid droplet fluorescence, 18-24 h; for cell number change: measured here: cell count max response, cells fed with added oleic acid
# How it was run: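 Drosophila S3 cells loaded with oleic acid (400 uM, as added) and compounds at several concentrations; lipid droplets imaged by 488-nm laser-scanning cytometry, 500–530 nm intensity and object ratio to cell channel. Percent activity normalized to 20 uM Triacsin C.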
# [1] = measured here: cell number channel AC50, cells fed with added oleic acid
# [2] = measured here: lipid fluorescence (Fed channel) AC50, cells fed with added oleic acid
Compound,cell number change,AC50 [1],AC50 [2]
CCOC(=O)c1c(-c2ccc(OC)cc2)oc2ccc(OCC(N)=O)cc12,-33.8%,"20.6 µM [falling, single point]",–
CCN1CCCC1CNC(=O)COc1cc(=O)n(C)c2ccccc12 (centres undefined),24.5%,–,"23.1 µM [rising, partial curve, poor fit]"
CCCC(=O)Nc1nnc(SCC(=O)NCc2ccc3c(c2)OCO3)s1,-6.01%,–,–
Cc1ccc(Cl)cc1N1CCN(S(=O)(=O)c2ccc3c(c2)OCCO3)CC1,31.8%,–,–
COc1ccc(N(CC(=O)N2CCc3ccccc3C2)S(C)(=O)=O)cc1,83.1%,"10.3 µM [rising, partial curve]","13 µM [rising, partial curve]"
O=C(c1ccccc1)c1nc2ccccc2n(CCCn2c(=O)c(C(=O)c3ccccc3)nc3ccccc32)c1=O,-10.8%,–,–
Cc1cc(=O)[nH]c2ccc(Cl)cc12,37.9%,"5.8 µM [rising, single point]",–
O=C(CCl)N(c1ccccc1)C1CCCCC1,-57.9%,"29.1 µM [falling, single point]","16.4 µM [falling, single point]"
COc1cc(C(=O)N/N=C/c2ccc(OC(=O)c3cccc(C)c3)cc2)ccc1O,-44.6%,"18.4 µM [falling, partial curve, poor fit]","29.1 µM [rising, partial curve, poor fit]"
Cc1ccc(-n2nnnc2SCC(=O)Nc2c(C)n(C)n(-c3ccccc3)c2=O)cc1,37%,"25.9 µM [rising, single point]","0.116 µM [falling, single point]"
COc1ccc(OC)c(NC(=O)C2CC(C)=C(C)CC2C(=O)O)c1 (centres undefined),-17.6%,–,"8.2 µM [rising, partial curve, poor fit]"
O=Cc1c(NCCCN2CCCC2=O)c2ccccc2[nH]c1=O,11.8%,–,"20.6 µM [rising, single point]"
Cc1ccc(CNC(=O)c2cc(-c3ccccc3C)n(CC3CC(c4cccc([N+](=O)[O-])c4)=NO3)n2)cc1 (centres undefined),-13.2%,–,"0.82 µM [falling, full curve, poor fit]"
CCN(CC)CCCNC(=O)CN1N=C(c2ccc(OC)cc2)CCC1=O,4.6%,–,"16.4 µM [rising, single point]"
O=C(C1CCCN(c2ncnc3c2nc2n3CCCCC2)C1)N1CCN(c2ccccc2)CC1 (centres undefined),-58%,"29.1 µM [falling, single point]","18.4 µM [falling, single point]"
CN(CC(=O)Nc1ccc(Cl)c(Cl)c1)C(=O)C1CCCC1,-13.3%,"0.164 µM [falling, full curve, poor fit]","0.116 µM [falling, full curve, poor fit]"
CCc1ccccc1Nc1ccc(C(=O)O)cc1N,19%,–,–
O=C(COC(=O)Cn1[nH]c(=O)c2ccccc2c1=O)NNC(=O)c1ccccc1,6.12%,"1.03 µM [falling, full curve]","1.03 µM [falling, full curve]"
CCCc1c(C(=O)N/N=C/c2sccc2C)nnn1-c1nonc1N,9.16%,–,"29.1 µM [falling, partial curve]"
O=C(CCc1nc2ccccc2[nH]1)N1CCN(C(=O)c2ccco2)CC1,12.4%,–,"29.1 µM [falling, single point]"

Compound,cell number change,AC50 [1],AC50 [2]
COc1ccc(NS(=O)(=O)c2cccc(C(=O)NNC(=O)c3cccc(NC(C)=O)c3)c2)cc1,-28.5%,"3.26 µM [falling, full curve, poor fit]",–
O=C(NN1C(=O)C2C(C1=O)C1C=CC2C12CC2)c1ccncc1 (centres undefined),-30.2%,"29.1 µM [falling, single point]","16.4 µM [falling, partial curve, poor fit]"
CCCn1c(C(O)c2ccc(C)cc2)nc2ccccc21 (centres undefined),21.8%,"0.326 µM [rising, full curve, poor fit]","29.1 µM [rising, single point]"
O=C(CCCN1C(=O)c2ccccc2C1=O)NCc1cccnc1,12%,–,"10.3 µM [rising, partial curve, poor fit]"
Cc1[nH]c2ccccc2c1-c1csc(NC(=O)CN2CCOCC2)n1,8.23%,–,–
Cc1ccc(S(=O)(=O)Nc2ccc(Cl)cc2)cc1NC(=O)Cn1cnc2c1c(=O)n(C)c(=O)n2C,-14.9%,"0.0092 µM [falling, full curve, poor fit]","0.0461 µM [falling, full curve, poor fit]"
CCCCc1nc2ccccc2c(C(=O)O)c1C,–,–,"4.11 µM [rising, partial curve]"
O=C(Nc1cc(S(=O)(=O)Nc2ccccc2Cl)ccc1O)c1cc2c(s1)CCCC2,23.6%,–,"6.51 µM [rising, single point]"
Cc1ccc(N=Nc2c(C)[nH][nH]c2=O)c(C)c1,125%,"5.17 µM [rising, full curve]","0.326 µM [rising, partial curve, poor fit]"
O=C(COC(=O)C12CC3CC(CC(C3)C1)C2)NCCc1ccccc1,-18.4%,–,–
CCCCNS(=O)(=O)c1ccc2nc(-c3cccnc3)cc(C(=O)NCCOC)c2c1,-2.05%,–,–
COCC1CCCCN1C(=O)c1cccc(OC2CCN(S(C)(=O)=O)CC2)c1 (centres undefined),-39.9%,"14.6 µM [falling, partial curve]",–
Cc1cccc(CSc2ncnc3nc[nH]c23)c1,–,–,"1.16 µM [falling, full curve]"
Cc1nonc1NC(=O)CSc1nc2cc(Cl)ccc2c2c1CCCC2,2.91%,–,–
COc1ccc(-n2cc(C#N)c(=O)[nH]c2=O)cc1,-7.85%,–,–
COc1ccc2[nH]cc(CCNC(=O)CCC3CCCCC3)c2c1,–,–,"13 µM [falling, partial curve, poor fit]"
CNC(=O)c1[nH]cnc1C(=O)Nc1cccc(Cl)c1,-14.2%,–,–
O=C(NCCCO)Nc1ccc2nc(-c3ccco3)c(-c3ccco3)nc2c1,18.2%,–,"0.00461 µM [falling, full curve, poor fit]"
CCOc1ccc(S(=O)(=O)NCCC(=O)NCC(c2ccco2)N2CCCCC2)cc1 (centres undefined),-4.15%,–,"0.058 µM [falling, full curve, poor fit]"
c1ccc(Cc2nnc3sc(-c4cccnc4)nn23)cc1,–,"0.206 µM [rising, partial curve, poor fit]","0.731 µM [rising, partial curve, poor fit]"

Compound,cell number change,AC50 [1],AC50 [2]
COc1cccc(CNC(=O)CCCSc2ccccc2)c1,-7.89%,–,"5.62 µM [falling, single point]"
Cc1ccc(C)c(NS(=O)(=O)c2ccc(-c3coc(C)n3)cc2)c1,-20.8%,–,–
COc1ccc(CNC(=O)CN2C(=O)COc3ccc(S(=O)(=O)N4CCOCC4)cc32)cc1,15.3%,–,–
O=C(NC1CCCC1)c1noc2c1CCCCC2,20.4%,–,"0.0731 µM [falling, full curve, poor fit]"
CN1CCN(S(=O)(=O)c2ccc(N3CCN(c4ccccc4O)CC3)c([N+](=O)[O-])c2)CC1,–,–,"6.51 µM [falling, single point]"
COc1ccc(N/C=C/C(=O)c2cc(OC)c(OC)c(OC)c2)cc1,6.57%,–,–
COc1ccc(NC(=O)CN(C)C(=O)c2cc(-c3ccc(Cl)cc3)nc3ccccc23)cc1,40.2%,"16.4 µM [rising, partial curve, poor fit]",–
OC(CNCc1ccc(-c2ccccc2)cc1)c1ccccc1 (centres undefined),2.94%,–,–
CN(C)c1cccc(C(=O)NC2CCCc3ccccc32)c1 (centres undefined),21.7%,"0.291 µM [rising, full curve, poor fit]",–
NC(=O)c1ccsc1NC(=O)c1cc(=O)c2ccccc2o1,-6.24%,"4.11 µM [falling, single point]","4.11 µM [falling, single point]"
CCOCCCNC(=O)c1ccc(CS(=O)(=O)Cc2ccccc2F)o1,–,–,"29.1 µM [rising, partial curve]"
Cc1ccc(C)c(-c2nc3ccc(N)cc3[nH]2)c1,–,"0.461 µM [rising, full curve]","0.366 µM [rising, full curve]"
CCOc1ccc(N(C)S(=O)(=O)c2cc(-c3cc(C)no3)ccc2C)cc1,-37.9%,"6.51 µM [falling, partial curve, poor fit]","23.1 µM [falling, partial curve]"
CCn1nc(C(=O)OCC(=O)N2c3ccccc3CC2C)c2ccccc2c1=O (centres undefined),30%,"25.9 µM [rising, single point]",–
CCc1c(C)nc(N2CCN(Cc3ccccc3)CC2)[nH]c1=O,-15.4%,–,"0.116 µM [falling, full curve, poor fit]"
CCOC(=O)c1oc2c(c1C)/C(=N/O)CCC2,13.8%,–,"0.651 µM [falling, single point]"
Cc1ccc(NC(=O)Cc2nc(-c3c[nH]c(C(=O)N4CCCC4)c3)cs2)c(C)c1,34.4%,"0.82 µM [rising, full curve, poor fit]","0.00461 µM [rising, full curve, poor fit]"
C=CCn1c(N)c(C(=O)Nc2ccc(C)c(C)c2)c2nc3ccccc3nc21,-34.9%,"20.6 µM [falling, single point]","29.1 µM [falling, single point]"
CCCNC(=O)CSc1nc2ccccc2c(=O)n1CCC,71.2%,"9.2 µM [rising, partial curve]",–

# Reformatted as tab-separated lines: entries from further up.
Compound	cell number change	AC50 [1]	AC50 [2]
O=C(NC1CCCC1)c1noc2c1CCCCC2	20.4%	–	0.0731 µM [falling, full curve, poor fit]
Cc1ccc(C)c(-c2nc3ccc(N)cc3[nH]2)c1	–	0.461 µM [rising, full curve]	0.366 µM [rising, full curve]
